Here are results for 4 sequences from patent US20240209456.

Amino acid sequences for entries named in this document (tags omitted). A change or cut given only in a name is not applied to a line headed by its entry.
UniProt Q92993: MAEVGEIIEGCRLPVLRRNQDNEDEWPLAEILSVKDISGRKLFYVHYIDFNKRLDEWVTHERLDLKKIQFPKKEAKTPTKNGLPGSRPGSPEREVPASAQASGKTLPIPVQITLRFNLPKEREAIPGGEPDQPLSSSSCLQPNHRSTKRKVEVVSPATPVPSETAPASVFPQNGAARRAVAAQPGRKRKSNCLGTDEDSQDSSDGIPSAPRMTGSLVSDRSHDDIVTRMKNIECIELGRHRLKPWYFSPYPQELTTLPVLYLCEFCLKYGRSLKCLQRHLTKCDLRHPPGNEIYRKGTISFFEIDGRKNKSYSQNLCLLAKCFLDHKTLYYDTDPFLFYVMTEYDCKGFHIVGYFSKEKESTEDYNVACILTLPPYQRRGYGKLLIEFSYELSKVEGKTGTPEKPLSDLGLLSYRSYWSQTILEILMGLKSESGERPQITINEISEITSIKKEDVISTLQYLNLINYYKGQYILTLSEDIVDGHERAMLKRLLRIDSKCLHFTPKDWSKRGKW

For this series, the target named is TIP60 (KAT5), full length (UniProt Q92993). Description: EMSA. To be noted: purified recombinant protein, protein details: SignalChem.

Weaker means in comparison with the reference protein, sequence or condition of that experiment.

Turning to “GCCCTTTCCCCAGCCTTAGCGA (double strand) [DM3 (DNA duplex of UR3 sequence)]”, where the note is “weak complex, text says same sequence as UR3, label: 32P, variant of UR3”, the binding result is recorded as “binds more weakly”. Regarding “CTTTCCTCCACTCTCCCTGGGA (double strand) [DM2 (DNA duplex of UR2 sequence)]”, the binding result (weak complex, label: 32P, variant of UR2) is on record as “binds more weakly”. With “GGCGTGGCGGTGGGCGCGCAGT (double strand) [DM9A (DNA duplex of RM9A sequence)]”, the binding result (weaker than RM9A RNA, text says same sequence as RM9A, label: 32P, variant of RM9A) is listed as “binds more weakly”.

UUAUGUUAUUGUUUAUAUACGU [Mut_RM9A]: under “strength and mobility of complex changed, label: 5'-32P, variant of RM9A”, the binding result was “binds more weakly”.
